In the supplement of paper PMC12819154, “High-throughput peptide-centric local stability assay extends protein–ligand identification to membrane proteins, tissues and bacteria” (Nature Structural & Molecular Biology, 2025):
The list shows a part of the results. Small differences around the control level are noise.

Sequences of proteins named here, by UniProt entry; tags and fusion partners are left off. A change or cut given only in a name is not applied to a line headed by its entry.
UniProt Q9Z0R9: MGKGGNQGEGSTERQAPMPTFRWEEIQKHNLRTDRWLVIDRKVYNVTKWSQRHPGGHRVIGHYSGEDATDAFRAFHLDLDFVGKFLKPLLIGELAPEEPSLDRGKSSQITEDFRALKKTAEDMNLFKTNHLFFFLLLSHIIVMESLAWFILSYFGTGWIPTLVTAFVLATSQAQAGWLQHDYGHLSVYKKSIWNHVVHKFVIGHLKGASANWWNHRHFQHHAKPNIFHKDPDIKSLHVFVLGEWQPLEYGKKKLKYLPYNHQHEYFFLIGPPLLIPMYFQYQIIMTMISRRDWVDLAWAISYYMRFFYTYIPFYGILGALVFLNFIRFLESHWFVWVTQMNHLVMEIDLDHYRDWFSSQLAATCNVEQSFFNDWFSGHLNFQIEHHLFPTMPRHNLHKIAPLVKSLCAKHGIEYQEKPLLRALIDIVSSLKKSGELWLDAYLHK
UniProt Q9Z2J0: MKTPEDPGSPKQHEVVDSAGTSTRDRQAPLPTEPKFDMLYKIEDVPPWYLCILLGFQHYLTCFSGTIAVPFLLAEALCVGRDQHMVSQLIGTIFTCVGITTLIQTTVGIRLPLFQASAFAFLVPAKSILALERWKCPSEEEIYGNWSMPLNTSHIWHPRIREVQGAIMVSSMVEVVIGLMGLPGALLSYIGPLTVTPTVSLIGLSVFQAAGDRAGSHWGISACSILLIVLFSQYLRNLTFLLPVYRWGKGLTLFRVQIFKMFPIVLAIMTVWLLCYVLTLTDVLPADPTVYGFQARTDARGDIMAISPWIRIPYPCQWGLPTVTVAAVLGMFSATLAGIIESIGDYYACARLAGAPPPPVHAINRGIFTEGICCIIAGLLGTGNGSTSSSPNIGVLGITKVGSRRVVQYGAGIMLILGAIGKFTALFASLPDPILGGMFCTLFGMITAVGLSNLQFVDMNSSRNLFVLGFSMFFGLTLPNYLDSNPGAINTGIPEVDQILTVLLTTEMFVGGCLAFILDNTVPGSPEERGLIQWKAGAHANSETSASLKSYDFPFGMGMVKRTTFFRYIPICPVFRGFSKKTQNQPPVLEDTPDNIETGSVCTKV
UniProt Q9QYR6: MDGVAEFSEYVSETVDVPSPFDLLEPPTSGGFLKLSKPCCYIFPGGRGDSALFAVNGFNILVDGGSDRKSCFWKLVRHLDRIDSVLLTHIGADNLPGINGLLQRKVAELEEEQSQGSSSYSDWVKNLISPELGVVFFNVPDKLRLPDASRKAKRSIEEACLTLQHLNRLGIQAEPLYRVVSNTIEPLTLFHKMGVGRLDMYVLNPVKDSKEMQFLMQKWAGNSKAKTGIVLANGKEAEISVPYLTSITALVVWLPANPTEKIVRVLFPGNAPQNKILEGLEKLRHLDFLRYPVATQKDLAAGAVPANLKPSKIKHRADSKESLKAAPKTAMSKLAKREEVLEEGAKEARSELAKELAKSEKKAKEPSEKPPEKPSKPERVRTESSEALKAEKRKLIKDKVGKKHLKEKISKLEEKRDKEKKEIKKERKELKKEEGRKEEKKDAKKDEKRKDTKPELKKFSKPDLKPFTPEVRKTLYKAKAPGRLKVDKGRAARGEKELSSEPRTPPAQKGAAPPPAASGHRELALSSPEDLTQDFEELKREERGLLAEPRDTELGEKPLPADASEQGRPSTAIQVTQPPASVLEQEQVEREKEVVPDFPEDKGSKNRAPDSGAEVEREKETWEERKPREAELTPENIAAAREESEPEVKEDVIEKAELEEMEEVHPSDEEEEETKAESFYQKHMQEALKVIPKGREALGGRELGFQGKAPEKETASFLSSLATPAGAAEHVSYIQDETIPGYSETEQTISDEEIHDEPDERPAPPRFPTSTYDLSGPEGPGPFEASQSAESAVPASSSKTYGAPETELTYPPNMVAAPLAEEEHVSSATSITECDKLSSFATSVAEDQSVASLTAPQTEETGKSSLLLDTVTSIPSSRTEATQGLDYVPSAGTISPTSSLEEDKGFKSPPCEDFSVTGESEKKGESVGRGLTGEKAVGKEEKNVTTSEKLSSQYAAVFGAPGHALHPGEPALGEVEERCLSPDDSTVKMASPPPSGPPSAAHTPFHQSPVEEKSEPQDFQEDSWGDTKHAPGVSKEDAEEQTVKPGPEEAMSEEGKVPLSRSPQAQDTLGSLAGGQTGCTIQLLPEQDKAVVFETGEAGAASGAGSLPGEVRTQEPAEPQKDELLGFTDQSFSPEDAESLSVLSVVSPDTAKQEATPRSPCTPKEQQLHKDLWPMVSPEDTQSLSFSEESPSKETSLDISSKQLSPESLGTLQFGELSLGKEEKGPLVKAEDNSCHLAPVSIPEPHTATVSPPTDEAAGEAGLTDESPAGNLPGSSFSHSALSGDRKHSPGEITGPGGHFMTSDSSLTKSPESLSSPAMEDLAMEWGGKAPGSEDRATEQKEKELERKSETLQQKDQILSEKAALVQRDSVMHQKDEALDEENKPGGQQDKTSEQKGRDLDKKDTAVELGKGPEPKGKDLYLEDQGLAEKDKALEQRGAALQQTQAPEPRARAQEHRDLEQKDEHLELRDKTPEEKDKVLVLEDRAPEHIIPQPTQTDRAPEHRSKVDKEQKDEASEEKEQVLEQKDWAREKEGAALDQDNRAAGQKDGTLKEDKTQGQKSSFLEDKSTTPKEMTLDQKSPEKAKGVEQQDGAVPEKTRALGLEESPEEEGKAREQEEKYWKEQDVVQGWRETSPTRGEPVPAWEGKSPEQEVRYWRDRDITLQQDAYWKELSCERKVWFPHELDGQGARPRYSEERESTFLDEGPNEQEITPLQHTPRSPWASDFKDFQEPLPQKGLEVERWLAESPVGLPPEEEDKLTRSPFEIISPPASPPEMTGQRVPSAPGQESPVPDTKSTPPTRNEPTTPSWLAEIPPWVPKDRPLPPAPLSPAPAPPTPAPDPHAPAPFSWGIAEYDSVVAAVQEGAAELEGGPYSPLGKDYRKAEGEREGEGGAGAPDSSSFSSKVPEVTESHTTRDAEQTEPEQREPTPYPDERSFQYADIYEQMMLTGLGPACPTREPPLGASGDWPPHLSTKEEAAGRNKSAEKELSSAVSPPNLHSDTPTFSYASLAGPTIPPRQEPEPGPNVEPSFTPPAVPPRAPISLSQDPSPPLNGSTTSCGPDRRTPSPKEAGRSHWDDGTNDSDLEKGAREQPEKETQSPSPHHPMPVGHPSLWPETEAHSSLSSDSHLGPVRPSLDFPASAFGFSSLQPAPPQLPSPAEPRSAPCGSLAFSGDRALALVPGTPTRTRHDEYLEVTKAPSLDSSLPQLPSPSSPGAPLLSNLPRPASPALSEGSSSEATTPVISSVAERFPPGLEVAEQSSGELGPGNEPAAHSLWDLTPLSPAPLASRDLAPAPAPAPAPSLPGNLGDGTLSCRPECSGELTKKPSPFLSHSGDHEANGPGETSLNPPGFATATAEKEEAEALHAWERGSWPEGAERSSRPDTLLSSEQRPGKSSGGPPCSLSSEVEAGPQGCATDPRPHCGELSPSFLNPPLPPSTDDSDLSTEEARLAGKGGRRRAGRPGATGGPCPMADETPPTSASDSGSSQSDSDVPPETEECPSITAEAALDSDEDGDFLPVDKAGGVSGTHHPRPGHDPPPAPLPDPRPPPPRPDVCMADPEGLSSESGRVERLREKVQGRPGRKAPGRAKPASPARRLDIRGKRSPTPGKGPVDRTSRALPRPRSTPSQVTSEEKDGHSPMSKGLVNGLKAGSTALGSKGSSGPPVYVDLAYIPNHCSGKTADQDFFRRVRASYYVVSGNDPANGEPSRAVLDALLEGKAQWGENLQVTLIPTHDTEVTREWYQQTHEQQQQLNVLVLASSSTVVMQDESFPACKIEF
UniProt Q9Z131: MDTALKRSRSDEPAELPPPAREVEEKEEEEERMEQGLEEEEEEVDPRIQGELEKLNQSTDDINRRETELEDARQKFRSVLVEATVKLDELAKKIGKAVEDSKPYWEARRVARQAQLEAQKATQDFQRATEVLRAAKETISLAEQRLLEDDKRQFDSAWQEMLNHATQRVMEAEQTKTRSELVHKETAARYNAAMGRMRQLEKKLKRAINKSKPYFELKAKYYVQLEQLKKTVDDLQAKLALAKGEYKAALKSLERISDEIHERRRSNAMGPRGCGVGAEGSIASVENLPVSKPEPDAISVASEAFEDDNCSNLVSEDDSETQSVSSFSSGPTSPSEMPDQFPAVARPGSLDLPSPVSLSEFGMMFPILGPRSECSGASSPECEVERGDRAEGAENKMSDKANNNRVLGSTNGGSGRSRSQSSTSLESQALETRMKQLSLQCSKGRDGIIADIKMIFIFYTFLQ
UniProt Q9Z0F7, whole entry: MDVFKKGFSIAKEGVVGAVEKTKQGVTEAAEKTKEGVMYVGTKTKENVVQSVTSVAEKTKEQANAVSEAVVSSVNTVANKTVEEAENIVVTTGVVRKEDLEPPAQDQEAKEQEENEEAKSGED
UniProt Q9WVJ3: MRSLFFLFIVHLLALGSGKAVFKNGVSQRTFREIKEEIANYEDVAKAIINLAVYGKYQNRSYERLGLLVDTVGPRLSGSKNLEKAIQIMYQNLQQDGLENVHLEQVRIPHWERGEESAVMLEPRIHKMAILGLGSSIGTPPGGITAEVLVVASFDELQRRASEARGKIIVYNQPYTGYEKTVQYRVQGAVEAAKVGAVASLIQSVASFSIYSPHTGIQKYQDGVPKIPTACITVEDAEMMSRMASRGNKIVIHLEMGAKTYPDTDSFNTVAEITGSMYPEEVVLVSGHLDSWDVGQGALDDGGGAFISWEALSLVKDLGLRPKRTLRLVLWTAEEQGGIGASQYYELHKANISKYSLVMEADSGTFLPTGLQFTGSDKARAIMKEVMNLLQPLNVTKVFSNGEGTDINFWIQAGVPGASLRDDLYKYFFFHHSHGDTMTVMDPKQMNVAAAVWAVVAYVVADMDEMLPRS
UniProt Q9Z0E6: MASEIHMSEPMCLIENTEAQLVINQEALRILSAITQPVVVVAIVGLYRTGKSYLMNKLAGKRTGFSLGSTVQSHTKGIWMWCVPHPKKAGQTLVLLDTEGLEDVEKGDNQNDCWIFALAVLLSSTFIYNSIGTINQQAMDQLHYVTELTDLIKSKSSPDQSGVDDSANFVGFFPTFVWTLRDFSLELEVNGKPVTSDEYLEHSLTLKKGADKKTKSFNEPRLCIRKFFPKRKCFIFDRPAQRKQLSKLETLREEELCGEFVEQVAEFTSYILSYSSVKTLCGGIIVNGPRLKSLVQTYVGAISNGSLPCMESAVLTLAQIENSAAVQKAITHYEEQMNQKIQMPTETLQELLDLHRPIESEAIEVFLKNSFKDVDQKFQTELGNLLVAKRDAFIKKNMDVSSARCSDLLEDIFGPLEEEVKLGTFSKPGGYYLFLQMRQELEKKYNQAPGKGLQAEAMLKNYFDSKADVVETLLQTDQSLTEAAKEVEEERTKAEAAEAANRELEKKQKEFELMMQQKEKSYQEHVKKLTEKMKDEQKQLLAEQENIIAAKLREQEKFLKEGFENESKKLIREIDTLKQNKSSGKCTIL
UniProt Q9WVL3: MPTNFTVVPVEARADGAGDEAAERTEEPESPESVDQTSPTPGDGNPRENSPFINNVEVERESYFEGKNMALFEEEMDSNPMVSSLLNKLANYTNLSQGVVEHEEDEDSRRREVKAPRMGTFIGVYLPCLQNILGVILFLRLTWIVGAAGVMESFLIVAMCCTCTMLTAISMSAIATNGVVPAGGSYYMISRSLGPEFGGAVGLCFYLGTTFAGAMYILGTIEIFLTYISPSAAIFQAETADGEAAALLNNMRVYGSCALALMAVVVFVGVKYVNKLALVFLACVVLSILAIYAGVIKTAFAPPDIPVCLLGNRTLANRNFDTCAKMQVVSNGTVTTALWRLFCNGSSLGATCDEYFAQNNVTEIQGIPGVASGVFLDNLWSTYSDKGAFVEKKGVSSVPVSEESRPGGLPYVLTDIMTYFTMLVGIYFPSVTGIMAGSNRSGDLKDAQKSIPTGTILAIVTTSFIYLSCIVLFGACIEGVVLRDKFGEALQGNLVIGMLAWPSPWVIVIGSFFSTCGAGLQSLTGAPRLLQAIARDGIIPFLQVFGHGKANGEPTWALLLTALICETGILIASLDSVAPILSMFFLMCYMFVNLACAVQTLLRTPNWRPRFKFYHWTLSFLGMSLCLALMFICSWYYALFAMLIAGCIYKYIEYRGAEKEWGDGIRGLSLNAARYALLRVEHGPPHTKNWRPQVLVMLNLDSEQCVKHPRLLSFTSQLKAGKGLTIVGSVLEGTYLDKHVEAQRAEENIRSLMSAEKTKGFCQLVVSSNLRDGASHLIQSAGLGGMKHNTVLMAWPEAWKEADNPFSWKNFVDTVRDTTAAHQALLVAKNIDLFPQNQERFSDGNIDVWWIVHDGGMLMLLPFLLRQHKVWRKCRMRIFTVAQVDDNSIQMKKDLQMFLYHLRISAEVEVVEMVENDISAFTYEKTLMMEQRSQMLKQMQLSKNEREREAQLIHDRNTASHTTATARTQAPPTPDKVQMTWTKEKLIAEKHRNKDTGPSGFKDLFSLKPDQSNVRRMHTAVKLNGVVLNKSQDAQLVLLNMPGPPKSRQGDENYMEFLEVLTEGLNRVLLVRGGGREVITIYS

compound: CN[C@@H]1C[C@H]2O[C@@](C)([C@@H]1OC)n1c3ccccc3c3c4c(c5c6ccccc6n2c5c31)C(=O)NC4 [staurosporine]; test: log2 fold change of pooled soluble protein (PISA), ligand vs vehicle (log2 ratio); higher = more thermally stabilized; conditions: ligand concentration: 20 uM; assay format: PISA pool 52.9/55.5/58.6 C

Target	log2 fold change of pooled soluble protein
UniProt Q9WU19	-0.0212
UniProt Q9WU79	-0.00676
UniProt Q9Z2U0	-0.0925
UniProt Q9Z0R9	-0.113
UniProt Q9Z211	-0.25
UniProt Q9WUM5	-0.105
UniProt Q9R013	0.0213
UniProt Q9Z2J0	-0.112
UniProt Q9QYJ0	0.0568
UniProt Q9Z2Y8	-0.0227
UniProt Q9Z1P7	-0.0585
UniProt Q9QZH3	-0.0998
UniProt Q9QYY0	0.0511
UniProt Q9QYR6	-0.209
UniProt Q9WV18	-0.504
UniProt Q9R0Q6	-0.0558
UniProt Q9R1P0	-0.259
UniProt Q9R0Q7	0.0557
UniProt Q9Z2C5	-0.0237
UniProt Q9WVE8	-0.0804

Target	log2 fold change of pooled soluble protein
UniProt Q9Z0R4	-0.0424
UniProt Q9Z1Q9	-0.166
UniProt Q9Z131	0.00055
UniProt Q9Z0F7	-0.00888
UniProt Q9Z1R2	-0.0169
UniProt Q9WU42	-0.00633
UniProt Q9Z2N8	0.165
UniProt Q9Z1X4	-0.0213
UniProt Q9WVJ3	-0.131
UniProt Q9R008	-0.0757
UniProt Q9WTL7	0.0149
UniProt Q9Z108	-0.0457
UniProt Q9WVA2	-0.03
UniProt Q9Z0E6	0.144
UniProt Q9Z1T1	0.0577
UniProt Q9QZQ1	0.0183
UniProt Q9R0P5	-0.0847
UniProt Q9WVL3	0.131
UniProt Q9WV69	-0.0939

Reformatted comma-delimited: part of the list above
Target,log2 fold change of pooled soluble protein
UniProt Q9Z0R4,-0.0424
UniProt Q9Z108,-0.0457
